These are yes or no findings as the source states them, for the method shown. Binding seen in cells or lysates may run through a third protein. Some entries that bind do so weakly or less than the wild type. Tags and fused reporters may be left off the sequences shown.
T1: FLAG-tagged FBXL3 (human) (UniProt Q9UKT7)
T1 sequence: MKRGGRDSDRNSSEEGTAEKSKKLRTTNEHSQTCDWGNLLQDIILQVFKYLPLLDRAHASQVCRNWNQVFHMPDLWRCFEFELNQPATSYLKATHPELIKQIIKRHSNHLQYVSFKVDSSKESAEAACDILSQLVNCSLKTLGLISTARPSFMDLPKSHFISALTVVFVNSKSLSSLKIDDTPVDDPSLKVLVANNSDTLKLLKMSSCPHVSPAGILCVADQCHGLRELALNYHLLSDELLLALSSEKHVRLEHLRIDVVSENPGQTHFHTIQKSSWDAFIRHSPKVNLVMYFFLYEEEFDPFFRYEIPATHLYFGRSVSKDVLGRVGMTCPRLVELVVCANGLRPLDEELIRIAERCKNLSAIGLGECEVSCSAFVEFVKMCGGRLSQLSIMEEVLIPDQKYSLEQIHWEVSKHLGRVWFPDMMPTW

Chains of the proteins cited; added tags and fusions are not shown.
UniProt Q01094: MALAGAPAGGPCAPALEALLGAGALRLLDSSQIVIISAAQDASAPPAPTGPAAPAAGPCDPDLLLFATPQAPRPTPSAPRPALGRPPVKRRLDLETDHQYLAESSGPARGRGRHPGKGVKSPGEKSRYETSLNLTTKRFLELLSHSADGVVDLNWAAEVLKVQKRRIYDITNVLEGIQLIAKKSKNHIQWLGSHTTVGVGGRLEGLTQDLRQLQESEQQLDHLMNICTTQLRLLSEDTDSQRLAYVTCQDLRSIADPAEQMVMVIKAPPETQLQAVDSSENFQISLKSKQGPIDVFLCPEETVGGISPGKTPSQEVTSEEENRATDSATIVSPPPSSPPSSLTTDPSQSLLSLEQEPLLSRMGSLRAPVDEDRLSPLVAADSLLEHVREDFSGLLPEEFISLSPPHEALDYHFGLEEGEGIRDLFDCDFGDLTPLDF
UniProt Q16254: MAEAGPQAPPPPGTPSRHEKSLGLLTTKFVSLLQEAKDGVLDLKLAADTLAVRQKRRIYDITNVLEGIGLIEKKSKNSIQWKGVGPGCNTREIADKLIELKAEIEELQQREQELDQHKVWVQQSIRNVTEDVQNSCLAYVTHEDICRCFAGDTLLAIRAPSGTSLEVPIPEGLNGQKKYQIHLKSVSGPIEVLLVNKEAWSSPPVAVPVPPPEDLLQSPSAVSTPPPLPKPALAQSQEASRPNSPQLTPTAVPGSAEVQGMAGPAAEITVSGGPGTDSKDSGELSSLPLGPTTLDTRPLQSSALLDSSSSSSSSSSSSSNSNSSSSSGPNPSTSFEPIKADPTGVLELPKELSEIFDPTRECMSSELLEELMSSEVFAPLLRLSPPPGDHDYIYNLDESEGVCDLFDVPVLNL
UniProt A0AVK6: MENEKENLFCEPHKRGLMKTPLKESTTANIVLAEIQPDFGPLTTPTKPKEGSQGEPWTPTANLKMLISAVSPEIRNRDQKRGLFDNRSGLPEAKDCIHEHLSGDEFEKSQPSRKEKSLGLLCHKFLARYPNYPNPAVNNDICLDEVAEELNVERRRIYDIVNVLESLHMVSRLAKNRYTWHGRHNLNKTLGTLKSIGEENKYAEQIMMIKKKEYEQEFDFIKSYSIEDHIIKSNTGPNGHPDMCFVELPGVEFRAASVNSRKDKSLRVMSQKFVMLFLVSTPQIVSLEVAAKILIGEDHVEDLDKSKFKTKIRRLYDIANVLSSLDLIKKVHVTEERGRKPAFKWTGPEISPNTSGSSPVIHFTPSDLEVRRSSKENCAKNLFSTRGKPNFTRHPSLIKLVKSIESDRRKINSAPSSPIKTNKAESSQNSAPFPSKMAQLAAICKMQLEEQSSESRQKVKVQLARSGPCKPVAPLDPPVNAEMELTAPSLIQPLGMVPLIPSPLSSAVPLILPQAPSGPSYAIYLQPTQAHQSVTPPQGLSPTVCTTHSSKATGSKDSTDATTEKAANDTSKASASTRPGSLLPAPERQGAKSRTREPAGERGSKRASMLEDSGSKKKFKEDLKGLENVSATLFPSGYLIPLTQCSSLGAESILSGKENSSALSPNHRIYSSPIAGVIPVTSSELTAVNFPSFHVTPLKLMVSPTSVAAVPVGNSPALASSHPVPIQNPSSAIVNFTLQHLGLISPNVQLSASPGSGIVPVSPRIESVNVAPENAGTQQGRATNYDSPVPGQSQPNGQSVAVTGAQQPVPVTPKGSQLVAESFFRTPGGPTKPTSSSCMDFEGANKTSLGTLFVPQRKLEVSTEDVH


Experiments:
[1] = target: T1, FLAG-tagged FBXL3 (human); assay: co-IP; FLAG-tagged FBXL3 as bait on anti-Flag M2 agarose beads; HEK293T whole cell extracts (1% TX-100, 50 mM HEPES pH 7.4, 138 mM KCl, 4 mM NaCl); E2F1, E2F4 or E2F8 co-expressed with or without CRY1 and/or CRY2; immunoblot
[2] = target: FLAG-tagged E2F1 (human) (UniProt Q01094); assay: co-IP; FLAG-tagged E2F1, E2F4 or E2F8 as bait on anti-Flag M2 agarose beads; HEK293T whole cell extracts (1% TX-100, 50 mM HEPES pH 7.4, 138 mM KCl, 4 mM NaCl); FBXL3 co-expressed with or without CRY1 or CRY2; immunoblot
[3] = target: FLAG-tagged E2F4 (human) (UniProt Q16254); assay: as above
[4] = target: FLAG-tagged E2F8 (human) (UniProt A0AVK6); assay: as above

binding [1] | binding [2] | binding [3] | binding [4] | Molecule
binds |  |  |  | E2F4 (co-expressed with FLAG-tagged FBXL3) (from UniProt Q16254 1-413)
 | binds | binds | binds | CRY2 (protein, UniProt Q9R194 1-592) MAAAAVVAATVPAQSMGADGASSVHWFRKGLRLHDNPALLAAVRGARCVRCVYILDPWFAASSSVGINRWRFLLQSLEDLDTSLRKLNSRLFVVRGQPADVFPRLFKEWGVTRLTFEYDSEPFGKERDAAIMKMAKEAGVEVVTENSHTLYDLDRIIELNGQKPPLTYKRFQALISRMELPKKPAVAVSSQQMESCRAEIQENHDDTYGVPSLEELGFPTEGLGPAVWQGGETEALARLDKHLERKAWVANYERPRMNANSLLASPTGLSPYLRFGCLSCRLFYYRLWDLYKKVKRNSTPPLSLFGQLLWREFFYTAATNNPRFDRMEGNPICIQIPWDRNPEALAKWAEGKTGFPWIDAIMTQLRQEGWIHHLARHAVACFLTRGDLWVSWESGVRVFDELLLDADFSVNAGSWMWLSCSAFFQQFFHCYCPVGFGRRTDPSGDYIRRYLPKLKGFPSRYIYEPWNAPESVQKAAKCIIGVDYPRPIVNHAETSRLNIERMKQIYQQLSRYRGLCLLASVPSCVEDLSHPVAEPGSSQAGSISNTGPRALSSGPASPKRKLEAAEEPPGEELTKRARVTEMPTQEPASKDS
 |  | binds |  | CRY1 (protein, UniProt P97784 1-606) MGVNAVHWFRKGLRLHDNPALKECIQGADTIRCVYILDPWFAGSSNVGINRWRFLLQCLEDLDANLRKLNSRLFVIRGQPADVFPRLFKEWNITKLSIEYDSEPFGKERDAAIKKLATEAGVEVIVRISHTLYDLDKIIELNGGQPPLTYKRFQTLVSKMEPLEMPADTITSDVIGKCMTPLSDDHDEKYGVPSLEELGFDTDGLSSAVWPGGETEALTRLERHLERKAWVANFERPRMNANSLLASPTGLSPYLRFGCLSCRLFYFKLTDLYKKVKKNSSPPLSLYGQLLWREFFYTAATNNPRFDKMEGNPICVQIPWDKNPEALAKWAEGRTGFPWIDAIMTQLRQEGWIHHLARHAVACFLTRGDLWISWEEGMKVFEELLLDADWSINAGSWMWLSCSSFFQQFFHCYCPVGFGRRTDPNGDYIRRYLPVLRGFPAKYIYDPWNAPEGIQKVAKCLIGVNYPKPMVNHAEASRLNIERMKQIYQQLSRYRGLGLLASVPSNSNGNGGLMGYAPGENVPSCSSSGNGGLMGYAPGENVPSCSGGNCSQGSGILHYAHGDSQQTHSLKQGRSSAGTGLSSGKRPSQEEDAQSVGPKVQRQSSN
 | binds | binds | binds | FBXL3 (co-expressed with FLAG-tagged E2F proteins) (protein, UniProt Q9UKT7 1-428) MKRGGRDSDRNSSEEGTAEKSKKLRTTNEHSQTCDWGNLLQDIILQVFKYLPLLDRAHASQVCRNWNQVFHMPDLWRCFEFELNQPATSYLKATHPELIKQIIKRHSNHLQYVSFKVDSSKESAEAACDILSQLVNCSLKTLGLISTARPSFMDLPKSHFISALTVVFVNSKSLSSLKIDDTPVDDPSLKVLVANNSDTLKLLKMSSCPHVSPAGILCVADQCHGLRELALNYHLLSDELLLALSSEKHVRLEHLRIDVVSENPGQTHFHTIQKSSWDAFIRHSPKVNLVMYFFLYEEEFDPFFRYEIPATHLYFGRSVSKDVLGRVGMTCPRLVELVVCANGLRPLDEELIRIAERCKNLSAIGLGECEVSCSAFVEFVKMCGGRLSQLSIMEEVLIPDQKYSLEQIHWEVSKHLGRVWFPDMMPTW
